Experimental data taken from PubChem BioAssay AID588497 (NMMLSC, 2011).
In all, about 360,000 compounds went through this assay and about 780 (0.22%) were called active. Inconclusive results, whose numbers are uncertain, are shown with a selection of clear calls. No stated cut-off is given here; in the data, active means inhibition above about 35% (passing the limit was not always enough); inconclusive means no clear call, values can overlap the other calls.

These molecules were tested on Botulinum neurotoxin type F light chain protease (Clostridium botulinum) (assay: BoNT/F light chain protease inhibitors, primary screen, biochemical, flow cytometry, MLPCN library (AID 588497; further: plate controls were buffer without enzyme for full effect and enzyme alone for no effect)). Details: Multiplex microsphere protease cleavage assay, at 10 µM, stronger effect = higher value.

SMILES	inhibition
OC(CN1CC=C(/C=C/c2ccc(Br)cc2)CC1)c1ccccc1 (stereo unspecified)	inconclusive: 12.4%
CCn1c2ccccc2c2cc(NC(=O)CSc3nnc(-c4ccc(OC)cc4)n3N)ccc21	inactive: -2.3%
Cc1cccc2cc(C#N)c(NCc3ccccc3)nc12	inactive: -7.4%
CSc1ccc(S(=O)(=O)Nc2ccc(NC(C)=O)cc2)cc1	inconclusive: 11.8%
O=c1cc(-c2ccc(O)c(O)c2)oc2cc(O)cc(O)c12	inactive: -8.2%
O=C(c1ccc(F)cc1)C1CCN(Cc2cn[nH]c2-c2ccccc2)CC1	inconclusive: 16.4%
Cc1cc(=O)oc2cc(OCC(=O)NC3(C#N)CCCCC3)ccc12	inactive: -9%
CCC(=O)Nc1ccc2nn(-c3ccc(F)cc3)nc2c1	inconclusive: 33.6%
C[C@H]1CN([C@@H](C)CO)C(=O)CCCn2nncc2CO[C@@H]1CN(C)C(=O)Cc1ccccc1	inactive: -0.2%
Cc1ccc(N(CC(=O)NCc2ccccc2)C(=O)CCC(=O)Nc2ccccn2)cc1	inactive: -14.4%
CCC(C)[C@H](NC(=O)NC1CCCc2ccccc21)C(=O)OC (stereo partly specified)	inconclusive: -56.1%
COCCNC(=O)c1cccc(OC2CCN(Cc3ccc(C(=O)OC)cc3)CC2)c1	inconclusive: 27.3%
O=CNC(=O)c1ccccc1C(=O)O	inconclusive: -22.6%
Cc1cnc(NC(=O)CC(C)c2ccccc2)s1 (stereo unspecified)	inactive: -3.6%
CN1CCN(C(=O)CCN2C(=O)/C(=C\c3ccc(Cl)cc3Cl)SC2=S)CC1	inconclusive: 47.9%
COc1ccc(-c2n[nH]c(=S)n2-c2ccccc2C)cc1	inconclusive: 14.7%
O=c1cc(-c2ccc(O)cc2)oc2c1ccc1ccccc12	inactive: -0.9%
O=C(CCCN1C(=O)/C(=C/c2ccccc2Cl)SC1=S)NNC(=O)c1cccnc1	inconclusive: -140%
COc1ccc(C(=O)Oc2cccc3cccnc23)cc1[N+](=O)[O-]	inactive: 6.3%
C/C(=N/NS(=O)(=O)c1ccc(Cl)cc1)c1cccc(NC(=O)c2ccc(Cl)cc2Cl)c1	inactive: -15.6%
COc1cc(/C=N/NC(=O)c2cccnc2)ccc1OC(=O)c1ccc2c(c1)OCO2	inactive: -4.2%
CC(C(=O)Nc1ccccn1)(c1ccccc1)c1ccccc1	inconclusive: 13.5%
COc1cc(C2Nc3ccccc3C(=O)N2c2ccccc2)ccc1O (stereo unspecified)	inactive: 7.6%
CSc1nnc(NC(=O)c2ccco2)s1	inconclusive: 7.7%
COc1ccc(CC(C)Nc2cccc(F)c2)cc1 (stereo unspecified)	inconclusive: 2.8%
COc1ccc(C(=O)NCc2cccnc2)cc1S(=O)(=O)N1CCCc2ccccc21	inactive: -6.7%

A portion from further up, for reference:
SMILES	inhibition
COc1ccc(C(=O)Oc2cccc3cccnc23)cc1[N+](=O)[O-]	inactive: 6.3%
C/C(=N/NS(=O)(=O)c1ccc(Cl)cc1)c1cccc(NC(=O)c2ccc(Cl)cc2Cl)c1	inactive: -15.6%
